Consider one substance from article PMC6743029.

Protein sequences, listed by entry. Tags and fused reporters are not part of them. Residues count along the entry.
UniProt O95832: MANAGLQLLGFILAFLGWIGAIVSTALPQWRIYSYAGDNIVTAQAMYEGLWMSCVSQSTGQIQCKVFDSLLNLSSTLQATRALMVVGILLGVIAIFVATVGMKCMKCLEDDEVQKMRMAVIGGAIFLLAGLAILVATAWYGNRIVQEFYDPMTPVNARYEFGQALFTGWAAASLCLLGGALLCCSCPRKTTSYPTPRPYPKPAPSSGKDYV
UniProt Q9NYU2, residues 43-1555: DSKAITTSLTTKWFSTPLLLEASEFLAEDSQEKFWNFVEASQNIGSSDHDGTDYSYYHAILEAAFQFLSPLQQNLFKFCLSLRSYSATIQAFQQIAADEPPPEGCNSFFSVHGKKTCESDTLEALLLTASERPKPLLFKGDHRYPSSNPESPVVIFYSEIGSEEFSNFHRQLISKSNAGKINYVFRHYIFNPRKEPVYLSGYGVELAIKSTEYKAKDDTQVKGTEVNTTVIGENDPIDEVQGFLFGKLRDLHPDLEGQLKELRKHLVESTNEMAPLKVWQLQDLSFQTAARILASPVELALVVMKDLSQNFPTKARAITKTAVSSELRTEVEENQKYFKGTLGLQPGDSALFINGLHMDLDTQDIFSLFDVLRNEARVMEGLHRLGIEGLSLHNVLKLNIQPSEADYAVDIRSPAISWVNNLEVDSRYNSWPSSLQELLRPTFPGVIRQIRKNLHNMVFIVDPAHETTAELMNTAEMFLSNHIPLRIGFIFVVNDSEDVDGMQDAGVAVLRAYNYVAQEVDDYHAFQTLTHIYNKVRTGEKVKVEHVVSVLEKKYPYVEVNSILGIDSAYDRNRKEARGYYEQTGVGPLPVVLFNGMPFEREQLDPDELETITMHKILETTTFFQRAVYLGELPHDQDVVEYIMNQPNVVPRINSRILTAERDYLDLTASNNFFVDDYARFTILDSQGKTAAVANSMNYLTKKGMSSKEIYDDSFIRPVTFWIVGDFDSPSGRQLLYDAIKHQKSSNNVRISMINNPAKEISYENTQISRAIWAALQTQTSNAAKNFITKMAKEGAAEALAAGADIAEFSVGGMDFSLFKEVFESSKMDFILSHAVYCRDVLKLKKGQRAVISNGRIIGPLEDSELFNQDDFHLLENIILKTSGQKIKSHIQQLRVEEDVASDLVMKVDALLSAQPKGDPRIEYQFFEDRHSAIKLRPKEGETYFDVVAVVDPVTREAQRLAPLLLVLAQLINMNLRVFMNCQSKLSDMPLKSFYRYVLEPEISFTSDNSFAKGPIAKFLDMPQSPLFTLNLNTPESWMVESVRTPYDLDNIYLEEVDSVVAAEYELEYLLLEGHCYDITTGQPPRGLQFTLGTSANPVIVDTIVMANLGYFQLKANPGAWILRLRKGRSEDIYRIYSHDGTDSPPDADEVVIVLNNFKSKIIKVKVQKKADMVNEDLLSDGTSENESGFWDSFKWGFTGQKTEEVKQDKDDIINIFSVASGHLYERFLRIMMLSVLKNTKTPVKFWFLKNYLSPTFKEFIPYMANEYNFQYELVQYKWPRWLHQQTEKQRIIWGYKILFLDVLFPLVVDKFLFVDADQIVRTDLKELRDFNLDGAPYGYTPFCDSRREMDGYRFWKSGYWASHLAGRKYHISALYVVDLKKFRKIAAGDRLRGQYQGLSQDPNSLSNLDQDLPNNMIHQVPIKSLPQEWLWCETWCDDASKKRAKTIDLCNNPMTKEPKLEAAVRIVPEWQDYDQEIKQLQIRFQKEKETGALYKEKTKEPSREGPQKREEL

These are yes or no findings as the source states them, for the method shown. Binding seen in cells or lysates may run through a third protein. Some results given as binding are weak or reduced against the parent protein; the word gives no strength. For some of these results: Sequences can lack the tags named with a protein.

Common to all, as to assay: co-IP; 293T cells transfected with a Flag-tagged protein for 48 h; lysis in 1% Triton X-100, 50 mM Tris-HCl pH 7.4, 150 mM NaCl; anti-Flag antibody-coated beads, 1.5 h at 4°C; Western blotting
(In general: In western blotting, separated proteins are transferred to a membrane and probed.)

Experiment [1] concerns the target claudin1-Flag (UniProt O95832).
Experiment [2] has as its target T1, CD81-Flag (UniProt P60033).
T1 sequence: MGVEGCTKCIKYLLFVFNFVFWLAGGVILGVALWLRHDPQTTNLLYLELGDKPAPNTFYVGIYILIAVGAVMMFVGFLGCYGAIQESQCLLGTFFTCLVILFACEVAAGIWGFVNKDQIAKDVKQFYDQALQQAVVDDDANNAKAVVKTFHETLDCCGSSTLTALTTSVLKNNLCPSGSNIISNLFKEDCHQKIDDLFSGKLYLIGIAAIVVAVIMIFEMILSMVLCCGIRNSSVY

The target of experiment [3] is T2, calnexin-Flag (UniProt P27824).
T2 sequence: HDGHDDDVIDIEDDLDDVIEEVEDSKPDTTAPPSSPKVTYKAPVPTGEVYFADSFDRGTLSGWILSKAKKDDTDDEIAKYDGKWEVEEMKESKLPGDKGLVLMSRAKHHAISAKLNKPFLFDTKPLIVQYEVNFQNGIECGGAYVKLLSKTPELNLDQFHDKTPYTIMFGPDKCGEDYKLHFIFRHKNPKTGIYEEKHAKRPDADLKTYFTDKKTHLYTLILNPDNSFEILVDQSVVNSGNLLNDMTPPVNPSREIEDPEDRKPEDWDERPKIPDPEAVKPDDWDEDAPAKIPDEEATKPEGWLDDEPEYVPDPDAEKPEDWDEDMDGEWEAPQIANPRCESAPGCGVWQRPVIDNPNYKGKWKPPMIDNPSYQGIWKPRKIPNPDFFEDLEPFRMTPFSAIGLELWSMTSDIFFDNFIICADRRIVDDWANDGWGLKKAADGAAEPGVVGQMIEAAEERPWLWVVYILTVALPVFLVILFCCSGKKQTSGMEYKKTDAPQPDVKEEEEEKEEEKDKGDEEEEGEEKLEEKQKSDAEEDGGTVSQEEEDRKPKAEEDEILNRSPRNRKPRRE

Experiment [4] addresses T3, occludin-Flag (UniProt Q16625).
T3 sequence: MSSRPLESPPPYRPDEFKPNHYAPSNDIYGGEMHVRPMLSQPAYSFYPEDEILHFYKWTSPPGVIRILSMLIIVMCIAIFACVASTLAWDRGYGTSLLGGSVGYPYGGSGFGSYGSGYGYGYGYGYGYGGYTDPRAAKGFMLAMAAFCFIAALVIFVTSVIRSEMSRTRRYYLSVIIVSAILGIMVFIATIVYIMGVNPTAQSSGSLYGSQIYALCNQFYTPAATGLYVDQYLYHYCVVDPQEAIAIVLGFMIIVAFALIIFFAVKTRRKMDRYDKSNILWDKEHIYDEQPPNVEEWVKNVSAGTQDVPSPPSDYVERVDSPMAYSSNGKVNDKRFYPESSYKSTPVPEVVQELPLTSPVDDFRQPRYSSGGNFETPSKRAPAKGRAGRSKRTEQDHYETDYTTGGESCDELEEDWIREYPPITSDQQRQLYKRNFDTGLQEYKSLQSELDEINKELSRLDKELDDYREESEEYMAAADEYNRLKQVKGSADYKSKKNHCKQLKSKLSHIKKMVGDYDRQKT

For the substance “UDP-glucose:glycoprotein glucosyltransferase 1 (UGGT1), cellular, 293T (from UniProt Q9NYU2 43-1555) (enzyme)”, the binding entry in experiment [1] is “no binding”; in experiment [2], “no binding”; in experiment [3] it was “binds”; in experiment [4] it was “no binding”.
